Test results from PubChem BioAssay AID504834 (National Center for Advancing Translational Sciences (NCATS), 2011).
Screen size: about 320,000 compounds; about 22,000 (6.9%) were called active. The shares of active, inactive and inconclusive entries below differ from those in the screen. The call rests on the fitted dose curve; in most records, active means well fitted inhibition curve with a large enough effect; inconclusive means small, poorly fitted or top-dose-only effect, or another doubt; inactive means no such curve, though single readings can be large or run the other way. Potencies beside an inconclusive call are fits to weak or partial responses and may not hold up.

Assay: Primary qHTS for delayed death inhibitors of the malarial parasite plastid, 96 hour incubation
Conditions: P. falciparum luciferase reporter growth; series mostly up to 28.7 µM; activity change, negative = inhibition: at the top concentration
Procedure, shortened: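 96 h incubation, 37 C, 5% CO2, of luciferase-reporter P. falciparum-infected RBCs (2% hematocrit, 0.05% parasitemia final) with test compounds; endpoint luminescence.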
On the % scale 0 is the no-effect control and ±100 the full control effect; potency means the concentration at half of the fitted maximal effect.

| Structure (SMILES) | Potency | activity change, negative = inhibition |
| --- | --- | --- |
| Cn1ncc(Cl)c1C(=O)NNC(=O)Nc1cccc2ccccc12 | inconclusive: 20.8 µM [inhibitor, single point] |  |
| Cc1ccc(CNC(=O)C2CCC(=O)N(CCc3ccc(Cl)cc3)C2)s1 (stereo not given) | inconclusive: 18.5 µM [inhibitor, single point] |  |
| CCOc1ccc(NC(=O)c2cccc(NC(=O)c3ccccc3)c2)cc1 | inconclusive: 11.7 µM [inhibitor, single point] |  |
| NC(=O)Cn1c(=O)n(C2CCCCC2)c(=O)c2c3c(sc21)CCCCC3 | active: 2.33 µM |  |
| COc1ccc(-c2csc(NC(=S)NC(=O)c3cc4ccccc4o3)n2)cc1Br | inconclusive: 0.37 µM [inhibitor, full curve, poor fit] |  |
| N#C/C(=C\c1c(F)cccc1Cl)C(=O)NC1CC1 | active: 13.1 µM |  |
| Nn1c(SCc2nc3ccccc3[nH]2)nnc1-c1ccccc1 |  | inactive: 4.01% |
| Clc1ccc(C#Cc2cccnc2)cc1 |  | inactive: 79.8% |
| COc1ccc(OC)c(C2C(C(=O)c3ccco3)=C(O)C(=O)N2CC2CCCO2)c1 (stereo not given) | inconclusive: 0.738 µM [inhibitor, partial curve, poor fit] |  |
| Cc1c(N2C(=O)/C(=C\c3ccc(N(C)C)cc3)N(C)C2=S)c(=O)n(-c2ccccc2)n1C |  | inactive: -23.2% |
| COC(=O)[C@@H]1C[C@H]2CC[C@H](O)C[C@H]2N1Cc1ccc(C(F)(F)F)cc1 | inconclusive: 18.5 µM [inhibitor, single point] |  |
| O=C(CSc1nnc2ccc(-c3ccco3)nn12)Nc1ccccc1F |  | inactive: 1.16% |
| Nc1nc2c(c(=O)[nH]1)C(c1cccc3ccccc13)C1=C(N2)c2ccccc2C1=O (stereo not given) |  | inactive: 12.4% |
| CCN(Cc1ccc2c(c1)OCCO2)C(=O)CN1C(=O)NC2(CCCCC2)C1=O | inconclusive: 11.7 µM [inhibitor, single point] |  |
| Cc1c(C(c2ccccc2Br)c2c(C)n(C)n(-c3ccccc3)c2=O)c(=O)n(-c2ccccc2)n1C | inconclusive: 10.4 µM [inhibitor, single point] |  |
| CCn1cc(Cl)c(C(=O)Nc2ccccc2C(N)=O)n1 | active: 13.1 µM |  |
| Cc1ccc(S(=O)(=O)N2CCCCC2)cc1NC(=O)COC(=O)C1(C)CC1(Cl)Cl (stereo not given) | inconclusive: 20.8 µM [inhibitor, single point] |  |
| COc1ccc(-c2nnc(SCc3csc(N)n3)n2C)cc1 | inconclusive: 10.4 µM [inhibitor, single point] |  |
| COc1ccc(C2CC(c3cccs3)=NN2C(=O)CSc2nc(=O)n3ccccc3n2)cc1 (stereo not given) | active: 8.28 µM |  |
| COC(=O)c1ccc(C2/C(=C(/O)c3ccc4c(c3)CC(C)O4)C(=O)C(=O)N2Cc2ccncc2)cc1 (stereo not given) | inconclusive: 18.5 µM [inhibitor, single point] |  |
| O=C(NCC1CCCO1)C1CCCN(S(=O)(=O)c2ccc(F)cc2)C1 (stereo not given) | inconclusive: 13.1 µM [inhibitor, single point] |  |
| COC(=O)C1=C(C)NC(=O)NC1c1ccccc1 (stereo not given) | inconclusive: 18.5 µM [inhibitor, single point] |  |
| COc1ccc(-c2cc(=NCCC(=O)O)c3cc(C)ccc3o2)cc1 | inconclusive: 18.5 µM [inhibitor, single point] |  |
| CC(=O)c1c(Cl)nc2ccc(Br)cc2c1-c1ccccc1 |  | inactive: 11% |

Whole records as entered above:
Cc1c(C(c2ccccc2Br)c2c(C)n(C)n(-c3ccccc3)c2=O)c(=O)n(-c2ccccc2)n1C is entered as Potency: inconclusive: 10.4 µM [inhibitor, single point]
Cc1ccc(S(=O)(=O)N2CCCCC2)cc1NC(=O)COC(=O)C1(C)CC1(Cl)Cl (stereo not given) is entered as Potency: inconclusive: 20.8 µM [inhibitor, single point]
CCN(Cc1ccc2c(c1)OCCO2)C(=O)CN1C(=O)NC2(CCCCC2)C1=O is entered as Potency: inconclusive: 11.7 µM [inhibitor, single point]
NC(=O)Cn1c(=O)n(C2CCCCC2)c(=O)c2c3c(sc21)CCCCC3 is entered as Potency: active: 2.33 µM

(next part)

| Structure (SMILES) | Potency | activity change, negative = inhibition |
| --- | --- | --- |
| Cc1c(NC2=C(Cl)C(=O)N(c3ccccc3)C2=O)c(=O)n(-c2ccccc2)n1C | inconclusive: 4.15 µM [inhibitor, partial curve] |  |
| Cc1cc(-c2nc3ccccc3[nH]2)ccc1N | inconclusive: 0.117 µM [inhibitor, full curve, poor fit] |  |
| CCC(C)N1CC23C=CC(O2)C(C(=O)OC)C3C1=O (stereo not given) | inconclusive: 8.28 µM [inhibitor, partial curve, poor fit] |  |
| Cc1cccc(N2CCN(S(=O)(=O)c3ccc4c(c3)CC(C)N4C(=O)C3CC3)CC2)c1C (stereo not given) | inconclusive: 2.33 µM [inhibitor, full curve, poor fit] |  |
| CCOC(=O)C1=C(CCc2ccccc2)NC(=O)NC1c1ccc2ccccc2c1 (stereo not given) | inconclusive: 4.65 µM [inhibitor, partial curve, poor fit] |  |
| CCOc1cc2c3c(c1)C(C)=CC(C)(C)N3C(=O)C2=O |  | inactive: 17.1% |
| C=CCn1c(O)c(N=Nc2ccccc2)c2ccccc21 |  | inactive: -0.62% |
| NC(N)=NCCN1CCCCCCC1 | inconclusive: 5.73 µM [inhibitor, single point] |  |
| CCOCCCNC(=O)c1cc(Cl)c(NC(=O)C2=C(C)OCCS2)cc1OC |  | inactive: 28.2% |
| CCc1ccc(NC(=O)c2cnc3scc(C)n3c2=O)cc1 |  | inactive: 63.3% |
| Cc1ccccc1C(=O)N1CCC(C(=O)Nc2ccccc2N2CCCC2)CC1 | inconclusive: 10.4 µM [inhibitor, single point] |  |
| CCC(c1nnnn1CCc1ccccc1)N(Cc1ccco1)Cc1cc2c(C)ccc(C)c2[nH]c1=O (stereo not given) |  | inactive: -3.09% |
| Cc1cc(F)ccc1NC(=O)CCCN(C)S(=O)(=O)c1ccc(F)cc1 |  | inactive: 5.88% |
| Cc1cc(C)n(C(=O)c2c([N+](=O)[O-])c(C)nn2C)n1 |  | inactive: -6.62% |
| COc1ccc(OC)c(C2=NS(=O)(=O)N(C)C(C(=O)NCc3ccco3)=C2)c1 | inconclusive: 0.0657 µM [inhibitor, full curve, poor fit] |  |
| O=C(/C=C/c1ccccc1[N+](=O)[O-])NCc1ccncc1 | inconclusive: 1.85 µM [inhibitor, partial curve, poor fit] |  |
| CN(C)S(=O)(=O)c1cccc(-c2nn(-c3ccccc3)cc2/C=C(\C#N)c2nc3ccccc3[nH]2)c1 | active: 1.47 µM |  |
| O=C(O)C/C(=C\c1cccc(NC(=O)c2ccccc2Cl)c1)c1nc2ccccc2s1 | inconclusive: 18.5 µM [inhibitor, single point] |  |
| COc1ccc(-c2cc3c(=O)n(CC(=O)Nc4ccc(C(C)=O)cc4)ncn3n2)cc1 | inconclusive: 18.5 µM [inhibitor, single point] |  |
| O=C(CSc1nc2ccccc2c(=O)n1CCCO)N1CCc2ccccc21 | inconclusive: 11.7 µM [inhibitor, single point] |  |
| Cc1ccccc1CN(C)C1CCN(C)CC1 | inconclusive: 18.5 µM [inhibitor, single point] |  |
| Cc1c(C)c2ccc(OC3CCCCC3=O)cc2oc1=O (stereo not given) | inconclusive: 11.7 µM [inhibitor, partial curve] |  |
| COc1cc(C(=O)NNC(=S)NC(=O)c2ccc(F)cc2)cc(OC)c1OC | inconclusive: 18.5 µM [inhibitor, single point] |  |
| OCC[N+]12CCC(CC1)C(C(O)(c1ccccc1)c1ccccc1)C2 (stereo not given) |  | inactive: -38.4% |

| Structure (SMILES) | Potency | activity change, negative = inhibition |
| --- | --- | --- |
| CCN(CC)S(=O)(=O)c1ccc(NC(=O)C(C)N(c2ccccc2)S(C)(=O)=O)cc1 (stereo not given) | inconclusive: 4.15 µM [inhibitor, partial curve, poor fit] |  |
| CCOC(=O)c1[nH]c2ccc(OC)cc2c1NC(=O)CCN1CCN(Cc2ccccc2)CC1 |  | inactive: 74.3% |
| O=C(c1cc(-c2ccc(F)cc2)nc2ccccc12)N1CCN(C2CCS(=O)(=O)C2)CC1 (stereo not given) | inconclusive: 4.65 µM [inhibitor, partial curve, poor fit] |  |
| CCc1cccc2c(C(=O)CN3C(=O)NC(C)(c4cccc5ccccc45)C3=O)c[nH]c12 (stereo not given) | active: 10.4 µM |  |
| O=C(Nc1ccc2c(c1)OCCO2)c1cc2sccc2n1Cc1ccc(F)cc1 | active: 10.4 µM |  |
| COc1cccc2c(=O)n(CC(=O)NCCc3ccccc3)ccc12 | active: 3.29 µM |  |
| COc1ccc(C(=O)NC2CC3CCCC(C2)N3Cc2ccccc2)c(OC)c1 (stereo not given) | inconclusive: 18.5 µM [inhibitor, single point] |  |
| CCOC(=O)C1=C(COc2ccccc2)NC(=O)NC1c1ccc(Cl)cc1 (stereo not given) | inconclusive: 18.5 µM [inhibitor, single point] |  |
| Cc1n(CC(=O)c2ccc(F)cc2)c2ccccc2[n+]1C | inconclusive: 2.08 µM [inhibitor, partial curve, poor fit] |  |
| CCN1C=C(C(=O)OC)C(c2cccc(OC)c2OC)C(C(=O)OC)=C1 |  | inactive: 36.6% |
| O=C(CN(c1ccc2c(c1)OCCO2)S(=O)(=O)c1ccccc1)N1CCN(Cc2ccccc2)CC1 |  | inactive: -0.612% |
| COc1ccc(N=C2SC(C(=O)Nc3ccc(C(=O)O)cc3)CC(=O)N2Cc2cccs2)cc1 (stereo not given) | active: 7.38 µM |  |
| COc1cccc(N2CCN(CC(=O)NC(C)c3ccccc3)CC2)c1 (stereo not given) | inconclusive: 6.57 µM [inhibitor, partial curve, poor fit] |  |
| CS(=O)(=O)c1ccc2nc(NC(=O)C3CCCO3)sc2c1 (stereo not given) |  | inactive: -4.1% |
| COc1cccc2c1OC1(C)CC2NC(=O)N1Cc1ccccc1 (stereo not given) | inconclusive: 6.57 µM [inhibitor, partial curve, poor fit] |  |
| N#Cc1ccc(C(=O)Nc2cccc3ccccc23)c(F)c1 | inconclusive: 10.4 µM [inhibitor, single point] |  |
| Cc1c(NC(=O)C(Sc2ccccc2)c2ccccc2)cccc1[N+](=O)[O-] (stereo not given) |  | inactive: 14.3% |
| CCSc1nnc2ccc(-c3cccs3)nn12 | inconclusive: 14.7 µM [inhibitor, partial curve, poor fit] |  |
| Cc1ccc(-c2cc(C(=O)N/N=C/c3ccc(F)cc3)n[nH]2)o1 | inconclusive: 18.5 µM [inhibitor, single point] |  |
| O=C(COc1ccc(C(=O)NCc2cccnc2)cc1)Nc1cccc(C(F)(F)F)c1 | inconclusive: 18.5 µM [inhibitor, single point] |  |
| N#Cc1ccc(/C=C(\C(=O)C(=O)O)c2ccc3ccccc3n2)cc1 |  | inactive: 179% |
| C#CCOCCOCCOCCNc1nc(N2CCN(C(=O)[C@H]([C@@H](C)CC)n3cc([C@@H](N)CC(C)C)nn3)CC2)nc(N2CCN(C(=O)[C@H](Cc3ccc(O)cc3)n3cc([C@@H](N)CC(C)C)nn3)CC2)n1 | inconclusive: 14.7 µM [inhibitor, single point] |  |
